# Source: US20260079169A1, “VOLATILE ORGANIC COMPOUNDS AS MARKERS FOR CELLULAR COMMUNICATION” (Technion Research and Development Foundation Limited, priority 2020, published 2026)
# Tests used:
# [1] = tested on: A549, H1299, H1975 human lung cancer lines and BEAS-2B normal cell line, each cultured alone; experiment: VOCs headspace analysis (ITEX GC-MS) of mono-culture groups (Format-1), bulk cell samples 1×10^4 cells; format: cell-based; parameters: key to Category (VOC increased or decreased relative to the control): ↑: Increased; ↓: decreased; ↑*: <0.01; ↑**: <0.001; details: for VOC level in headspace, area under curve (AUC) normalized by STD AUC: bulk 1 × 10^4 cell
# [2] = tested on: different-cell pairs of BEAS-2B, A549, H1299, H1975 without physical contact under a mutual headspace; experiment: VOCs headspace analysis (ITEX GC-MS) of different-cell pair co-culture headspace groups (Format-3), bulk cell samples; format: cell-based, human; parameters: key to Category (VOC increased or decreased relative to the control): ↑: Increased; ↓: decreased; ↑*: <0.01; ↑**: <0.001; details: for VOC level in headspace, area under curve (AUC) normalized by STD AUC: bulk 1 × 10^4 cell
# [3] = mono-culture groups (Format-1), 48 h incubation, averaged peak area (n = 3)
# [4] = different-cell pair co-culture headspace (Format-3), 48 h, averaged peak area (n = 3)
# [5] = different-cell pair co-culture headspace (Format-3), 24 h, averaged peak area (n = 3)
# [6] = different-cell pair co-culture headspace (Format-3), 72 h, averaged peak area (n = 3)
Compound,"Category (VOC increased or decreased relative to the control) [1, 3]","Category (VOC increased or decreased relative to the control) [2, 4]","Category (VOC increased or decreased relative to the control) ([1]; mono-culture groups (Format-1), 72 h incubation, averaged peak area (n = 3))","Category (VOC increased or decreased relative to the control) [2, 5]","Category (VOC increased or decreased relative to the control) [2, 6]",Category (VOC increased or decreased relative to the control) [1],Category (VOC increased or decreased relative to the control) [2],"Category (VOC increased or decreased relative to the control) ([1]; mono-culture groups (Format-1), 24 h incubation, averaged peak area (n = 3))","VOC level in headspace, area under curve (AUC) normalized by STD AUC ([1]; A (BEAS-2B) mono-culture)","VOC level in headspace, area under curve (AUC) normalized by STD AUC ([1]; B (A549) mono-culture)","VOC level in headspace, area under curve (AUC) normalized by STD AUC ([1]; C (H1299) mono-culture)","VOC level in headspace, area under curve (AUC) normalized by STD AUC ([1]; D (H1975) mono-culture)","VOC level in headspace, area under curve (AUC) normalized by STD AUC ([2]; A + B (BEAS-2B + A549))","VOC level in headspace, area under curve (AUC) normalized by STD AUC ([2]; A + C (BEAS-2B + H1299))","VOC level in headspace, area under curve (AUC) normalized by STD AUC ([2]; A + D (BEAS-2B + H1975))","VOC level in headspace, area under curve (AUC) normalized by STD AUC ([2]; B + C (A549 + H1299))","VOC level in headspace, area under curve (AUC) normalized by STD AUC ([2]; B + D (A549 + H1975))","VOC level in headspace, area under curve (AUC) normalized by STD AUC ([2]; C + D (H1299 + H1975))"
Cc1ccc(CO)cc1 [4-Methylbenzyl alcohol],↑* (↑*: <0.01),↑* (↑*: <0.01),–,–,–,–,–,–,–,–,–,–,–,–,–,–,–,–
CCCCOC(=O)c1ccc(O)cc1 [Butylparaben],–,–,↑,↑,–,–,–,–,–,–,–,–,–,–,–,–,–,–
COC(=O)CCC(=O)OC [Dimethyl succinate],↑** (↑**: <0.001),↑* (↑*: <0.01),–,–,–,–,–,–,–,–,–,–,–,–,–,–,–,–
CCO [Ethanol],↑,–,–,↑,↑* (↑*: <0.01),–,–,–,–,–,–,–,–,–,–,–,–,–
CCCC(O)C(CC)COC(=O)C(C)C (stereo not shown) [Isobutyric acid 2-ethyl-3-hydroxyhexyl ester],↑,–,–,–,↓,–,–,–,–,–,–,–,–,–,–,–,–,–
C=CC(C)=O [Methyl vinyl ketone],↑* (↑*: <0.01),–,–,–,↑,–,–,–,–,–,–,–,–,–,–,–,–,–
Oc1ccccc1 [Phenol],–,–,–,–,–,↓,↓,–,–,–,–,–,–,–,–,–,–,–
c1cc[nH]c1 [Pyrrole],↑* (↑*: <0.01),–,–,–,↑,–,–,–,–,–,–,–,–,–,–,–,–,–
CCCCCCCCCCCCCC [Tetradecane],–,–,–,↑* (↑*: <0.01),–,–,–,↑,–,–,–,–,–,–,–,–,–,–
CCC(C)C=O (stereo not shown) [VOC1],–,–,–,–,–,–,–,–,0,0,0,0,0,0,0,0,0,0
O=Cc1ccccc1 [VOC2],–,–,–,–,–,–,–,–,0,0,0,0,9.291,6.46,6.343,7.116,3.98,7.712
CC(C)CC=O [VOC3],–,–,–,–,–,–,–,–,0,0,0,0,0,0,0,0,0,0
CCCCCCCCCCCCCCC=O [VOC4],–,–,–,–,–,–,–,–,0,0,0,0,0,0,0,0,0,0
CCCCCCCCC=O [VOC5],–,–,–,–,–,–,–,–,0,5.353,0.0524,5.827,9.91,3.842,0,0,7.88,0
CCCCCCCCCCCC [VOC6],–,–,–,–,–,–,–,–,2.93,–,0,7.604,0,0,0,0,0,0
CCCCCCCCCCCCCC [VOC7],–,–,–,–,–,–,–,–,0.977,1.466,0,7.874,8.418,9.815,0,6.131,0,7.454
CCCCCCCCCCCCCCCC [VOC8],–,–,–,–,–,–,–,–,0,0,1.5507,9.863,1,0,0,0,0,0
CCCCCCCCCCCCCCC [VOC9],–,–,–,–,–,–,–,–,3.863,0,0,0,9.676,7.602,6.928,0,0,0
CCCC(C)CCCCC(C)CC (stereo not shown) [VOC10],–,–,–,–,–,–,–,–,0,0,2.6495,0,0,7.939,0,0,0,0
CCCCCCC(C)CC(C)CCC (stereo not shown) [VOC11],–,–,–,–,–,–,–,–,9.142,0,0,8.847,2.169,3.956,0,0,5.827,0
CCCCC(C)C(C)CCC (stereo not shown) [VOC12],–,–,–,–,–,–,–,–,0,0,0,0,0,0,0,0,0,0
CCCCCCCCCCCCC [VOC13],–,–,–,–,–,–,–,–,0,0,0,6.487,0,0,0,0,5.063,0

# Read-outs that look alike come from different tables or passages of the source. Some results come without the dose or concentration used.
